In the experiment the target is T1, Ubiquitin-specific protease 38 (rat (endogenous in H9c2)) (UniProt D3Z8K5).
T1 sequence: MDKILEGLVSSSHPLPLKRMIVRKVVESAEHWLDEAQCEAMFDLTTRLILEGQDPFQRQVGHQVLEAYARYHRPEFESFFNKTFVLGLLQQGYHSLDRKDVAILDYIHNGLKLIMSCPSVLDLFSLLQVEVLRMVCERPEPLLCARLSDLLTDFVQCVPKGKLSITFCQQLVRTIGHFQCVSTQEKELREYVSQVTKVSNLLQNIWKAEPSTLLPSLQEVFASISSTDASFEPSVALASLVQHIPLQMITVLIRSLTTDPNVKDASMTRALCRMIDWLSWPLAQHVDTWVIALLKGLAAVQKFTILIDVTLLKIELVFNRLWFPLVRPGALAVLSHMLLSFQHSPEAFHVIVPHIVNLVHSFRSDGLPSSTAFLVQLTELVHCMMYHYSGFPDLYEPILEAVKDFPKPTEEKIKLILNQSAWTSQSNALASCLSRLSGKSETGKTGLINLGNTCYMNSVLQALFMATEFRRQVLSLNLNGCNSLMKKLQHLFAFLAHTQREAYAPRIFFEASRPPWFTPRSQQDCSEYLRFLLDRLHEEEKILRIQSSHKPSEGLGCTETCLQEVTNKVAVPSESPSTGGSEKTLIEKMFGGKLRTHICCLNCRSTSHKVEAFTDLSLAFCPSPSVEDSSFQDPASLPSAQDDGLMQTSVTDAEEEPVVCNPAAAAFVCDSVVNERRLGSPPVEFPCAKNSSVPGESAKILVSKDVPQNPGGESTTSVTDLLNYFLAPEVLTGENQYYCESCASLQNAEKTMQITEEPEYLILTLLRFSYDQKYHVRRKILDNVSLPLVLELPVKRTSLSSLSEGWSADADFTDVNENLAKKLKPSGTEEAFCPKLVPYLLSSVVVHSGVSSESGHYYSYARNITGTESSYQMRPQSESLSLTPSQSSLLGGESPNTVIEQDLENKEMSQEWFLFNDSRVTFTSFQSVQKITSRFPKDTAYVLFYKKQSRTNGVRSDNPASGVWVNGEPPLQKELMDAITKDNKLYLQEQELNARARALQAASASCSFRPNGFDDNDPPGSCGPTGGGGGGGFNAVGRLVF
Put plainly: co-IP; endogenous proteins in H9c2 cell lysate (IP lysis buffer with PMSF and a cocktail); anti-USP38, anti-TBK1 or anti-IgG overnight, magnetic beads 1 h at room temperature, Western blotting; repeated three times. A general note: Immunoblotting shows a protein as a band on a membrane.

No constants are given. Whether binding was seen depends on the method and setting. In cells and extracts the contact can be indirect. Some results given as binding are weak or reduced against the parent protein; the word gives no strength.

B1: TBK1 (protein, UniProt D4A7D3 1-729)
chain: MQSTSNHLWLLSDILGQGATANVFRGRHKKTGDLYAVKVFNNISFLRPVDVQMREFEVLKKLNHKNIVKLFAIEEETTTRHKVLIMEFCPCGSLYTVLEEPSNAYGLPESEFLIVLRDVVGGMNHLRENGIVHRDIKPGNIMRVIGEDGQSVYKLTDFGAARELEDDEQFVSLYGTEEYLHPDMYERAVLRKDHQKKYGATVDLWSVGVTFYHAATGSLPFRPFEGPRRNKEVMYKIITGKPSGAISGVQKAENGPIDWSGDMPLSCSLSQGLQALLTPVLANILEADQEKCWGFDQFFAETSDVLHRMVIHVFSLQHMTALKIYIHSYNTAAVFHELVYKQTKIISSNQELIYEGRRLVLELGRLAQHFPKTTEENPIFVTSREQLNSIGLRYEKISLPKIHPRYDLDGDASMAKAVTGVVCYACRTAGTLLLYQELMRKGVRWLIELVKDDYNETVHKKTEVVITLDFCIRNIEKTVKVYEKLMKVSLDAAELGEISDIHTKLLRLSSSQGTIESSLQDINSRLSPGGSLADTWAHQEGTHPRDRNVEKLQVLLNCITEIYYQFKKDKAERRLAYNEEQIHKFDKQKLYYHATKAMTHFTDECVRKYEAFKDTSEEWMRKMLHLRKQLLSLTNQCFDIEEEVSKYQDYTNELQETLPQKMLAASSGIKHTVAPIYPSSNTLVEMTLGMKKLKEEMEGVVKELAENNHILERFGSLTMDGGLRNVDCL
In the case of B1, the binding entry is reported as “binds”.

The record behind these values is article PMC11210128.
